The list shows a part of the results. Repeats are few or missing, and single values can be far off.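 Labelled rat cortical synaptosomes were engulfed by primary human fetal astrocytes. Engulfment equaled a red/green ratio, corrected for calcein live-cell signal and normalized to the plate median. Compounds were toxic when calcein dropped over 30%, and reduced phagocytosis when below 70% of the median above 5 µM.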
tested on: Human fetal astrocytes; experiment: loss of total cells relative to no-compound high-control median (toxicity); higher = more toxic (fewer cells); settings: 1.39 µM; 24 h

Compound | loss of total cells [%]
C[C@@H]1CC[C@@]2(OC1)O[C@H]1C[C@H]3[C@@H]4CC[C@H]5C[C@@H](O)CC[C@]5(C)[C@H]4CC[C@]3(C)[C@H]1[C@@H]2C | -33
c1coc(CNc2ncnc3[nH]cnc23)c1 | 24.2
OC(c1cc(C(F)(F)F)nc2c(C(F)(F)F)cccc12)C1CCCCN1 (stereo not drawn) | -28.2
Oc1c(Cl)cc(Cl)c(Cl)c1Cc1c(O)c(Cl)cc(Cl)c1Cl | 11.6
O=C(O)CCCC[C@@H]1SC[C@@H]2NC(=O)N[C@@H]21 | -39.5
O=c1cc(-c2ccc(O)c(O)c2)oc2cc(O)cc(O)c12 | -11.5
CCC(CCC(C)C1CCC2C3CCC4CC(O)CCC4(C)C3CCC12C)C(C)C (stereo not drawn) | -8.2
Nc1nc(=S)c2ncn([C@@H]3O[C@H](CO)[C@@H](O)[C@H]3O)c2[nH]1 | -21.3
C=CC(C1=CC(=O)C(OC)=CC1=O)c1ccc(O)cc1 (stereo not drawn) | 33
O=C1C(CC[S+]([O-])c2ccccc2)C(=O)N(c2ccccc2)N1c1ccccc1 (stereo not drawn) | 0.9
CN1CCCN=C1/C=C/c1cccc(O)c1 | -6.2
O=C(O)c1ccc(S(=O)(=O)N(Cl)Cl)cc1 | 6.8
COc1ccc(-c2cc(=O)c3c(OC)c(OC)c(OC)c(OC)c3o2)cc1 | -23
COc1ccc2oc(-c3ccccc3)c(OC)c(=O)c2c1 | -32
CN1CCc2c(c3ccccc3n2Cc2ccccc2)C1 | 5.4
CC[C@@]1(O)C(=O)OCc2c1cc1n(c2=O)Cc2cc3c(CN(C)C)c(O)ccc3nc2-1 | -26.6
N=C(N)NCCN1CCCCCCC1 | -16.3
N[C@@H](COCc1ccccc1)C(=O)O | -8.2
CCOC(=O)[C@H](CCc1ccccc1)N[C@@H](C)C(=O)N1CCC[C@H]1C(=O)O | -33.2
COC(=O)C[C@H]1C(C)(C)[C@@H](O)[C@@H]2CC3=C4C=C(OC)O[C@@H](c5ccoc5)[C@]4(C)CCC3[C@@]1(C)C2=O (stereo partly drawn) [3-DEOXO-3beta-HYDROXYMEXICANOLIDE 16-ENOL ETHER] | 3.3

Compound | loss of total cells [%]
CN1CCN(C(c2ccccc2)c2ccccc2)CC1 | -10.4
N[C@@H](CCC(=O)N[C@@H](CSC(CC(=O)O)C(=O)O)C(=O)NCC(=O)O)C(=O)O (stereo partly drawn) | 6.1
Cc1ccc(S(=O)(=O)NC(=O)NN2CC3CCCC3C2)cc1 (stereo not drawn) | 9
CC[C@H]1OC(=O)C[C@@H](O)[C@H](C)[C@@H](O[C@@H]2O[C@H](C)[C@@H](O)[C@H](N(C)C)[C@H]2O)[C@@H](CCN2C[C@H](C)C[C@H](C)C2)C[C@@H](C)C(=O)/C=C/C(C)=C/[C@@H]1CO[C@@H]1O[C@H](C)[C@@H](O)[C@@H](OC)[C@H]1OC | -36.3
Nc1ccccc1S(N)(=O)=O | -1.1
O=c1c(O)cc([C@H]2Oc3cc(O)cc(O)c3C[C@H]2O)cc2c([C@H]3Oc4cc(O)cc(O)c4C[C@H]3O)cc(O)c(O)c12 | 8.3
Cc1nc(C)c(Cl)c(O)c1Cl | -20.2
CC(=O)O[C@H]1CC[C@]2(C)[C@H]3CC=C4[C@@H]5CC(C)(C)CC[C@]5(C)CC[C@@]4(C)[C@]3(C)CC[C@H]2C1(C)C [beta-AMYRIN ACETATE] | -23.6
C#C[C@]1(OC(C)=O)CC[C@H]2[C@@H]3CCC4=C[C@@H](OC(C)=O)CC[C@@H]4[C@H]3CC[C@@]21C | -18.5
CC(CCC(=O)O)[C@H]1CCC2C3CC[C@@H]4CC(=O)CC[C@]4(C)C3C=C[C@@]21C (stereo partly drawn) | -7.4
CCOC(=O)[N-]c1c[n+](N2CCOCC2)no1 [Molsidomine] | 2.1
CN(C(=O)CN(CCO)CC(=O)N(C)C(C)(C)Cc1ccccc1)C(C)(C)Cc1ccccc1 | -6.5
COc1ccc(CN(CCN(C)C)c2ncccn2)cc1 | -28.2
C[N+](C)(C)CCOP(=O)(O)OP(=O)([O-])OC[C@H]1O[C@@H](n2ccc(N)nc2=O)[C@H](O)[C@@H]1O | -38.7
OC[C@H]1O[C@@](CO)(O[C@H]2O[C@H](CO)[C@@H](O)[C@H](O)[C@H]2O)[C@@H](O[C@H]2O[C@H](CO)[C@@H](O)[C@H](O)[C@H]2O)[C@@H]1O | -2.5
CC(C)/C(O)=C1/C(=O)O[C@@H](c2ccoc2)[C@]2(C)C(O)[C@@H](O)[C@@]34OC5(C)OC67CC(C)(C(O)[C@]6(O)[C@@H](O)[C@]3(O5)C12)[C@H](CC(=O)O)[C@]74C (stereo partly drawn) | 6.2
CCN1CCCC(OC(=O)C(c2ccccc2)c2ccccc2)C1 (stereo not drawn) | 7.3
Cc1cc(C)nc(NS(=O)(=O)c2ccc(N)cc2)n1 | 3.9
C=C1C(=O)[C@]23[C@H](CC[C@@H]1[C@@H]2O)[C@]12CO[C@@]3(O)[C@H](O)[C@H]1C(C)(C)CC[C@@H]2O | -18.9

same assay, conditions: 2.78 µM; 24 h

Compound | loss of total cells [%]
C[C@@H]1CC[C@@]2(OC1)O[C@H]1C[C@H]3[C@@H]4CC[C@H]5C[C@@H](O)CC[C@]5(C)[C@H]4CC[C@]3(C)[C@H]1[C@@H]2C | 3.3
c1coc(CNc2ncnc3[nH]cnc23)c1 | 17
OC(c1cc(C(F)(F)F)nc2c(C(F)(F)F)cccc12)C1CCCCN1 (stereo not drawn) | -34.9
Oc1c(Cl)cc(Cl)c(Cl)c1Cc1c(O)c(Cl)cc(Cl)c1Cl | 1
O=C(O)CCCC[C@@H]1SC[C@@H]2NC(=O)N[C@@H]21 | -38.9
O=c1cc(-c2ccc(O)c(O)c2)oc2cc(O)cc(O)c12 | 14.1
CCC(CCC(C)C1CCC2C3CCC4CC(O)CCC4(C)C3CCC12C)C(C)C (stereo not drawn) | -7.6
Nc1nc(=S)c2ncn([C@@H]3O[C@H](CO)[C@@H](O)[C@H]3O)c2[nH]1 | -8.3
C=CC(C1=CC(=O)C(OC)=CC1=O)c1ccc(O)cc1 (stereo not drawn) | 8.6
O=C1C(CC[S+]([O-])c2ccccc2)C(=O)N(c2ccccc2)N1c1ccccc1 (stereo not drawn) | -5.1
CN1CCCN=C1/C=C/c1cccc(O)c1 | -3.3
O=C(O)c1ccc(S(=O)(=O)N(Cl)Cl)cc1 | -9.8
COc1ccc(-c2cc(=O)c3c(OC)c(OC)c(OC)c(OC)c3o2)cc1 | 0.4
COc1ccc2oc(-c3ccccc3)c(OC)c(=O)c2c1 | -7.6
CN1CCc2c(c3ccccc3n2Cc2ccccc2)C1 | 14.8
CC[C@@]1(O)C(=O)OCc2c1cc1n(c2=O)Cc2cc3c(CN(C)C)c(O)ccc3nc2-1 | -2.7
N=C(N)NCCN1CCCCCCC1 | -11.2
N[C@@H](COCc1ccccc1)C(=O)O | 6.1
CCOC(=O)[C@H](CCc1ccccc1)N[C@@H](C)C(=O)N1CCC[C@H]1C(=O)O | -15.5
COC(=O)C[C@H]1C(C)(C)[C@@H](O)[C@@H]2CC3=C4C=C(OC)O[C@@H](c5ccoc5)[C@]4(C)CCC3[C@@]1(C)C2=O (stereo partly drawn) [3-DEOXO-3beta-HYDROXYMEXICANOLIDE 16-ENOL ETHER] | 15.3

Compound | loss of total cells [%]
CN1CCN(C(c2ccccc2)c2ccccc2)CC1 | -21.4
N[C@@H](CCC(=O)N[C@@H](CSC(CC(=O)O)C(=O)O)C(=O)NCC(=O)O)C(=O)O (stereo partly drawn) | 6.9
Cc1ccc(S(=O)(=O)NC(=O)NN2CC3CCCC3C2)cc1 (stereo not drawn) | 6.9
CC[C@H]1OC(=O)C[C@@H](O)[C@H](C)[C@@H](O[C@@H]2O[C@H](C)[C@@H](O)[C@H](N(C)C)[C@H]2O)[C@@H](CCN2C[C@H](C)C[C@H](C)C2)C[C@@H](C)C(=O)/C=C/C(C)=C/[C@@H]1CO[C@@H]1O[C@H](C)[C@@H](O)[C@@H](OC)[C@H]1OC | -28.6
Nc1ccccc1S(N)(=O)=O | 9
O=c1c(O)cc([C@H]2Oc3cc(O)cc(O)c3C[C@H]2O)cc2c([C@H]3Oc4cc(O)cc(O)c4C[C@H]3O)cc(O)c(O)c12 | 2.7
Cc1nc(C)c(Cl)c(O)c1Cl | 19
CC(=O)O[C@H]1CC[C@]2(C)[C@H]3CC=C4[C@@H]5CC(C)(C)CC[C@]5(C)CC[C@@]4(C)[C@]3(C)CC[C@H]2C1(C)C [beta-AMYRIN ACETATE] | -0.7
C#C[C@]1(OC(C)=O)CC[C@H]2[C@@H]3CCC4=C[C@@H](OC(C)=O)CC[C@@H]4[C@H]3CC[C@@]21C | -3.3
CC(CCC(=O)O)[C@H]1CCC2C3CC[C@@H]4CC(=O)CC[C@]4(C)C3C=C[C@@]21C (stereo partly drawn) | 1.8
CCOC(=O)[N-]c1c[n+](N2CCOCC2)no1 [Molsidomine] | -9.2
CN(C(=O)CN(CCO)CC(=O)N(C)C(C)(C)Cc1ccccc1)C(C)(C)Cc1ccccc1 | -30.2
COc1ccc(CN(CCN(C)C)c2ncccn2)cc1 | -3.2
C[N+](C)(C)CCOP(=O)(O)OP(=O)([O-])OC[C@H]1O[C@@H](n2ccc(N)nc2=O)[C@H](O)[C@@H]1O | -5.6
OC[C@H]1O[C@@](CO)(O[C@H]2O[C@H](CO)[C@@H](O)[C@H](O)[C@H]2O)[C@@H](O[C@H]2O[C@H](CO)[C@@H](O)[C@H](O)[C@H]2O)[C@@H]1O | -6.1
CC(C)/C(O)=C1/C(=O)O[C@@H](c2ccoc2)[C@]2(C)C(O)[C@@H](O)[C@@]34OC5(C)OC67CC(C)(C(O)[C@]6(O)[C@@H](O)[C@]3(O5)C12)[C@H](CC(=O)O)[C@]74C (stereo partly drawn) | -6
CCN1CCCC(OC(=O)C(c2ccccc2)c2ccccc2)C1 (stereo not drawn) | -14.3
Cc1cc(C)nc(NS(=O)(=O)c2ccc(N)cc2)n1 | -25.4
C=C1C(=O)[C@]23[C@H](CC[C@@H]1[C@@H]2O)[C@]12CO[C@@]3(O)[C@H](O)[C@H]1C(C)(C)CC[C@@H]2O | -6.9

Reference: the supplement of paper PMC10689618
